The list shows a part of the results.
Key:
Assay in all cases: log2 fold change, soluble protein after heating vs DMSO (PISA); higher = thermal stabilisation; K562 cells, 10 uM, 30 min; active = over 0.2 and 3.5 SD of the protein, either way, in both replicates (recomputed)
[1] = compound: CC1=C(C=C(C=C1)NC(=O)C2=CC(=CC=C2)C(C)(C)C#N)NC3=CC4=C(C=C3)N=CN(C4=O)C
Outline: (§1)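 K562 cells at 2×10^6 cells/mL were treated with 10 μM compound for 30 min. Aliquots were heated for 3 min across 48°C-58°C, pooled, and extracted in PBS with 0.5% NP-40 at 4°C; soluble protein was the supernatant after 21,000xg for 90 min. Soluble protein was quantified by TMTpro 16plex LC-MS/MS with channel sums equalised, and reported as log2 fold change in thermal stability against DMSO controls, with values from duplicates.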

By UniProt entry, the sequences of proteins in these tests, tags left out. Where a name states a change or a piece, a line headed by the entry shows the natural chain unless it says otherwise.
UniProt Q9C0C9: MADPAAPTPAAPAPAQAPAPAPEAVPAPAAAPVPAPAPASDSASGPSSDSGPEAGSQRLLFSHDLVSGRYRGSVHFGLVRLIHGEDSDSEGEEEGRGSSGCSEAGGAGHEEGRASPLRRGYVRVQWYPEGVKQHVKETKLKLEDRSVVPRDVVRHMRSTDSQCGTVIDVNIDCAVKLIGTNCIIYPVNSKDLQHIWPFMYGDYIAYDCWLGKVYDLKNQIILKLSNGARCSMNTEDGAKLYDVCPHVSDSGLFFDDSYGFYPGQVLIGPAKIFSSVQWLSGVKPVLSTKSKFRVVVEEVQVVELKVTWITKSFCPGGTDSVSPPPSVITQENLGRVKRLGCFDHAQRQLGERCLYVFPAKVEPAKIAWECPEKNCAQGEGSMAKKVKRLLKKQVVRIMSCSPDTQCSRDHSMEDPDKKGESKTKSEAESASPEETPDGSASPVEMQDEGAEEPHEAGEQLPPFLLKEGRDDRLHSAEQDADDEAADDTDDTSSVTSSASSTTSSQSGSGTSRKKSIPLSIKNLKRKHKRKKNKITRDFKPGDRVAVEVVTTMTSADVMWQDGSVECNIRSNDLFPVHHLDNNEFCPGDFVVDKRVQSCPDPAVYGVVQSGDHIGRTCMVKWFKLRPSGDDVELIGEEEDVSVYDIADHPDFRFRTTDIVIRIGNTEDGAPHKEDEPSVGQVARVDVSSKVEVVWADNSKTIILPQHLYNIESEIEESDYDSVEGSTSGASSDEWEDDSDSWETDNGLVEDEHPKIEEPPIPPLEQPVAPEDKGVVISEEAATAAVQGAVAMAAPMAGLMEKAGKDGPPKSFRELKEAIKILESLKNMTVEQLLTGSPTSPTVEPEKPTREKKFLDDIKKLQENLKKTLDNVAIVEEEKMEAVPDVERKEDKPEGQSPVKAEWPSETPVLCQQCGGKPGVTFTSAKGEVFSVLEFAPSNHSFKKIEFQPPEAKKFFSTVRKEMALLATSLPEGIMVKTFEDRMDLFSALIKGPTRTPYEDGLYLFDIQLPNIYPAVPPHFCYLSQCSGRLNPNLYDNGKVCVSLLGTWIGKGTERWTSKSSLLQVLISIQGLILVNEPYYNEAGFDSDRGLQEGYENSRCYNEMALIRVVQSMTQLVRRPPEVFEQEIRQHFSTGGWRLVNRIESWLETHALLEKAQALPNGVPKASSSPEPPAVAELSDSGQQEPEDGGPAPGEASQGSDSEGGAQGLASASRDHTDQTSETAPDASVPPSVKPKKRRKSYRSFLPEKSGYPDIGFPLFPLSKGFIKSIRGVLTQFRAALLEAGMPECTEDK
UniProt Q6IPR3: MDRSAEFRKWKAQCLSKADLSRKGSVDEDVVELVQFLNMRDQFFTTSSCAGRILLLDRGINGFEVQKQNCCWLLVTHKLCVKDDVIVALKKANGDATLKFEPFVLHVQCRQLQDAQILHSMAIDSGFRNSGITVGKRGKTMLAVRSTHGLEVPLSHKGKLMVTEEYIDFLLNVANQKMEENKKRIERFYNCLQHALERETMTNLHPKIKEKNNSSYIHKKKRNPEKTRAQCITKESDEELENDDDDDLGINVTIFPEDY
UniProt P61088: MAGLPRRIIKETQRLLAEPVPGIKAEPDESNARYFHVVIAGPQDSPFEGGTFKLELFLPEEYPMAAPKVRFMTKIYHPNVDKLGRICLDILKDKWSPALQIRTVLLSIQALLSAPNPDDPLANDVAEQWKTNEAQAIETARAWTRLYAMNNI
UniProt P68363, whole entry, looked up: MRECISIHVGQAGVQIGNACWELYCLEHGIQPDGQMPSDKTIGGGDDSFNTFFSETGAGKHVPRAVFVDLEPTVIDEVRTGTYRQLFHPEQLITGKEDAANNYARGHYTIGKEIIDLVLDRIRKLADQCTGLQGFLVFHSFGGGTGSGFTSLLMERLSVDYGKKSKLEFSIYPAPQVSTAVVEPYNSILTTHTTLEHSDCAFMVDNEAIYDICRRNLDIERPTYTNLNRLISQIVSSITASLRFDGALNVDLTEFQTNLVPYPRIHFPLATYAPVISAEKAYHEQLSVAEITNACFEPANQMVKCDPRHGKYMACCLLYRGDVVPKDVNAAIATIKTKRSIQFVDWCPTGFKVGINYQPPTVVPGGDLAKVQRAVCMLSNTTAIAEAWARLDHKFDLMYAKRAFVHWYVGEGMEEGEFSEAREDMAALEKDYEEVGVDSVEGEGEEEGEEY
UniProt Q8NG68: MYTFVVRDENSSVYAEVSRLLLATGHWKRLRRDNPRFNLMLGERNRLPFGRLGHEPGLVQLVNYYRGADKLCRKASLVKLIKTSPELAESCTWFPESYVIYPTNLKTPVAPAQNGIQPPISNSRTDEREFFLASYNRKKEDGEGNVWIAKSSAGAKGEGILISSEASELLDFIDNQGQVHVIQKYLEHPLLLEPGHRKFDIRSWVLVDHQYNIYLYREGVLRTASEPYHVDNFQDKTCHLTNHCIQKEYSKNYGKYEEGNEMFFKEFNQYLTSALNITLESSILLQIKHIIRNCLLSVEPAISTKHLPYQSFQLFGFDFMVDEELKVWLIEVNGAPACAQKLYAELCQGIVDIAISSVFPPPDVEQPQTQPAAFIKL
UniProt Q7Z6J9: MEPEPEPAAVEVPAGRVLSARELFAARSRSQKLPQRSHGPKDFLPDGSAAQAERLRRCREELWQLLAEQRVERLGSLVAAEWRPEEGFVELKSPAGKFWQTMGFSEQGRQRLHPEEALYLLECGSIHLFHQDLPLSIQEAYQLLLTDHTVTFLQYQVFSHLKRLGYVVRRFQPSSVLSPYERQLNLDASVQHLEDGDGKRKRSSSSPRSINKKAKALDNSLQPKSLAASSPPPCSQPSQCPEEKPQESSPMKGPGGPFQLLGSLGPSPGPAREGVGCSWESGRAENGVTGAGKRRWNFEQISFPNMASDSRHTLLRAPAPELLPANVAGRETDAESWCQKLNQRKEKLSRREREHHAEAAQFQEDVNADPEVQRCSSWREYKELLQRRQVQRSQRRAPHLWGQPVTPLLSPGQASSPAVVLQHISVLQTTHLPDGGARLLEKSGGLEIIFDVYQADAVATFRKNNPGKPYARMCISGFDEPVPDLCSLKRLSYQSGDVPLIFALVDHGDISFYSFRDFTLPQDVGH
UniProt Q969E8: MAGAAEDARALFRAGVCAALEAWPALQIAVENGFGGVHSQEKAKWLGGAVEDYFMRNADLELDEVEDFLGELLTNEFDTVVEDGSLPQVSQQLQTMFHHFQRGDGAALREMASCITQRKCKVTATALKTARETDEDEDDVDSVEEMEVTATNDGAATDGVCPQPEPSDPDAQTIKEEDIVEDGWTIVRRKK
UniProt Q8NG11: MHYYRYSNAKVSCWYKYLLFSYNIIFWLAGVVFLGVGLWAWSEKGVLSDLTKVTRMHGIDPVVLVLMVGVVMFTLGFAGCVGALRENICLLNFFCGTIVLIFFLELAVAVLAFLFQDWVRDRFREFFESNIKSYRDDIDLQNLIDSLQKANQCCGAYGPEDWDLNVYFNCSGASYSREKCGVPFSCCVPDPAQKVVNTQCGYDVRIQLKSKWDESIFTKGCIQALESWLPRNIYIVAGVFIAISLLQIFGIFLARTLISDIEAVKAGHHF
UniProt Q2NL82: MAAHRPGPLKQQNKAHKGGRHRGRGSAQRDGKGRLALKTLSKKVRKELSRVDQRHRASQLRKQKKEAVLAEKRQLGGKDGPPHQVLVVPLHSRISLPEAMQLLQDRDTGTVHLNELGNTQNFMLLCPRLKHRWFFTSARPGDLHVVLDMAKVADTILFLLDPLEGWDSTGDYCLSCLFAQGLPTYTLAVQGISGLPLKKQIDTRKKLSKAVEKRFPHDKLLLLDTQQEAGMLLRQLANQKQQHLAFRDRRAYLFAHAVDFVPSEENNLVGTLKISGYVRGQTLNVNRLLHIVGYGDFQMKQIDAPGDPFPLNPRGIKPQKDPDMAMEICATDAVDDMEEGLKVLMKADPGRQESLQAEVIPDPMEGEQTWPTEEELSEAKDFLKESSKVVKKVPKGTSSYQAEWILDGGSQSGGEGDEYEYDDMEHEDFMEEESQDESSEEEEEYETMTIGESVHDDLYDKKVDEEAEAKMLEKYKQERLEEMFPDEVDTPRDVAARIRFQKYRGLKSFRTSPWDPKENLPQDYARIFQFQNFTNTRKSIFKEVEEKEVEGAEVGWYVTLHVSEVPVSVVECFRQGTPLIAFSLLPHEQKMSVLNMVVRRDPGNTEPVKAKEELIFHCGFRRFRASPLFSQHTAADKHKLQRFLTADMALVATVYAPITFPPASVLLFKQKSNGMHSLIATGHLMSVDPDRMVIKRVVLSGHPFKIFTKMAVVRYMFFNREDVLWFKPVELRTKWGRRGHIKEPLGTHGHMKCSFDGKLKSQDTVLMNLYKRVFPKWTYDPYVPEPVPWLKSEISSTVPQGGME
UniProt Q13630: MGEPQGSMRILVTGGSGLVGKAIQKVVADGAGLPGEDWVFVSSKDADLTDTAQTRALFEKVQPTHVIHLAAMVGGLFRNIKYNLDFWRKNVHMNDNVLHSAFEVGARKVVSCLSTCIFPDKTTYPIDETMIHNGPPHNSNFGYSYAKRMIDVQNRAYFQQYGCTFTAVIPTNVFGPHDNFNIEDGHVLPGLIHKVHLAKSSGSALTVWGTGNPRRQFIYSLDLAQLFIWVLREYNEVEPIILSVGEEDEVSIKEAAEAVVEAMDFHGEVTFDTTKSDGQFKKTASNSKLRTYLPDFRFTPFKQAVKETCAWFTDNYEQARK
UniProt Q9NUQ3: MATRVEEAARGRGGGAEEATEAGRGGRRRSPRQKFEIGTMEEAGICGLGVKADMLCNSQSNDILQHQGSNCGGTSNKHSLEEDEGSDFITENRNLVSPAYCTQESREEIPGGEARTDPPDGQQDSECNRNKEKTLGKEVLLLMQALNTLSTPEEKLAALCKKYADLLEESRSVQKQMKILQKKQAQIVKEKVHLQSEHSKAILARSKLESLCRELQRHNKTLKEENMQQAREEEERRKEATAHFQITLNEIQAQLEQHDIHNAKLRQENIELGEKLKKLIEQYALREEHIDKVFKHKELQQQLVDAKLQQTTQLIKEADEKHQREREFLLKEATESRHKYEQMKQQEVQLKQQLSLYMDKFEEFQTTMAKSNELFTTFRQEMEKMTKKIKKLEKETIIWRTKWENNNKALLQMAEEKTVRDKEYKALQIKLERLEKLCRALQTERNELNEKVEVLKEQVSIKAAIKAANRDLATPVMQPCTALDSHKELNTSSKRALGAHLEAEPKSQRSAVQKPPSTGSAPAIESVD
UniProt Q99614: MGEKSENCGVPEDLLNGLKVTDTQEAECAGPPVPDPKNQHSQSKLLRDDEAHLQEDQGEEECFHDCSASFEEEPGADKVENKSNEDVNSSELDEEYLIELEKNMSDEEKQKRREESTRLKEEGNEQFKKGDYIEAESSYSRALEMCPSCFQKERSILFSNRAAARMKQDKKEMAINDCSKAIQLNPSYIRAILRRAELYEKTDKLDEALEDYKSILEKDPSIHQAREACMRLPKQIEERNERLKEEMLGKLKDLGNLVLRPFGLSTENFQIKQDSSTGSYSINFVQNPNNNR
UniProt Q712K3: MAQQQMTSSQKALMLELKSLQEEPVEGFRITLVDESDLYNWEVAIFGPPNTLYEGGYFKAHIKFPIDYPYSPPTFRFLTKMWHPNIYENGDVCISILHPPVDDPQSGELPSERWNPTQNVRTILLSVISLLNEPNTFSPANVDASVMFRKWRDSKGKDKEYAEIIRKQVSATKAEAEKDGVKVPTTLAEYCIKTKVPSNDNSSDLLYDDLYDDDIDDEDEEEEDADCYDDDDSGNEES
UniProt P04818: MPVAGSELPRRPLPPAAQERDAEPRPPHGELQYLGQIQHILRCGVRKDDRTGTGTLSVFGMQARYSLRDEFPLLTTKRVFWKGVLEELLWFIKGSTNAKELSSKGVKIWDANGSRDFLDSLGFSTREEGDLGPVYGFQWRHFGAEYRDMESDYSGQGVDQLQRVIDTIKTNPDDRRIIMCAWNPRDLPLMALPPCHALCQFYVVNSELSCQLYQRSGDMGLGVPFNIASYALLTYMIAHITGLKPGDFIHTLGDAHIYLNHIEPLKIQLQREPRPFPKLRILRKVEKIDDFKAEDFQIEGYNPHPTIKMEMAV
UniProt Q9UJK0: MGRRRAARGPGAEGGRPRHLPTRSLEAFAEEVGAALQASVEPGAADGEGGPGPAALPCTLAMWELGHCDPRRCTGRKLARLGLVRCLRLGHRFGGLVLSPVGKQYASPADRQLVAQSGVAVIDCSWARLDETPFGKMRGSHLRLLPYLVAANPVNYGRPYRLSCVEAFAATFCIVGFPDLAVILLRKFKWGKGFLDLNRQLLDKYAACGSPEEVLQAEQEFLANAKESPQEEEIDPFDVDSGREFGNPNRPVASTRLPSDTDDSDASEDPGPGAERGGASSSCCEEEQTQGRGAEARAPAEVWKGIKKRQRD
UniProt P61081: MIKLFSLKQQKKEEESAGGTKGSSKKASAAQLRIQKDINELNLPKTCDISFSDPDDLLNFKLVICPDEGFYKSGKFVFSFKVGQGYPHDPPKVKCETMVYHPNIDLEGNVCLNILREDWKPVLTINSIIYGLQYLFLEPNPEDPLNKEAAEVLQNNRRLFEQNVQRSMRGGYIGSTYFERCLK

[2] = compound: CC1=C(C=C(C=C1)NC(=O)C2=CC(=CC=C2)N(C)C)NC(=O)C3=CC=C(C=C3)O
Outline: as §1

[3] = compound: CC1=CC=C(C=C1)SC2=C3C=C(SC3=CN=C2)C(=O)N
Outline: as §1

[4] = compound: CC1=NC(=CC=C1)C2=C(N=C(N2)C(C)(C)C)C3=CC4=NC=CN=C4C=C3
Outline: as §1

Nexturastat A = compound: CCCCN(Cc1ccc(C(=O)NO)cc1)C(=O)Nc1ccccc1 [Nexturastat A]
Outline: as §1

vemurafenib = compound: CCCS(=O)(=O)Nc1ccc(F)c(C(=O)c2c[nH]c3ncc(-c4ccc(Cl)cc4)cc23)c1F [vemurafenib]
Outline: as §1

[5] = compound: CCCS(=O)(=O)Nc1ccc(F)c(C(=O)c2c[nH]c3ncc(Cl)cc23)c1F
Outline: as §1

[6] = compound: CCCc1cc(C)[nH]c(=O)c1CNC(=O)c1cc(-c2ccnc(N3CCN(C)CC3)c2)cc2c1cnn2C(C)C
Outline: as §1

givinostat = compound: CCN(CC)Cc1ccc2cc(COC(=O)Nc3ccc(C(=O)NO)cc3)ccc2c1 [givinostat]
Outline: as §1

barasertib = compound: CCN(CCCOc1ccc2c(Nc3cc(CC(=O)Nc4cccc(F)c4)[nH]n3)ncnc2c1)CCOP(=O)(O)O [barasertib]
Outline: as §1

[7] = compound: CC[C@@H]1C(=O)N(C)c2cnc(Nc3ccc(C(=O)NC4CCN(C)CC4)cc3OC)nc2N1C1CCCC1
Outline: as §1

volasertib = compound: CC[C@@H]1C(=O)N(C)c2cnc(Nc3ccc(C(=O)N[C@H]4CC[C@H](N5CCN(CC6CC6)CC5)CC4)cc3OC)nc2N1C(C)C [volasertib]
Outline: as §1

[8] = compound: CC[C@H](C)N1C=C(C2=C(C=C(C=C21)C3=CN=C(C=C3)N4CCNCC4)C(=O)NCC5=C(C=C(NC5=O)C)C)C
Outline: as §1

epoxomicin = compound: CC[C@H](C)[C@@H](C(=O)N[C@@H]([C@@H](C)O)C(=O)N[C@@H](CC(C)C)C(=O)[C@]1(CO1)C)NC(=O)[C@H]([C@@H](C)CC)N(C)C(=O)C [epoxomicin]
Outline: as §1

[9] = compound: CCn1c(C(=O)N(C2CC2)C2CC2)cc2c3c(ncn3C)c(Nc3cc(C)n(C)n3)nc21
Outline: as §1

[10] = compound: CCn1cc(-c2ccnc3[nH]c(-c4cccc(CN(C)C)c4)cc23)c(-c2ccc(NC(=O)N(C)C)cc2)n1
Outline: as §1

[11] = compound: CN(C)CC(=O)Nc1ccc2[nH]c(=O)c3ccccc3c2c1
Outline: as §1

rosiglitazone = compound: CN(CCOC1=CC=C(C=C1)C[C@H]2C(=O)NC(=O)S2)C3=CC=CC=N3 (racemic) [rosiglitazone]
Outline: as §1

[12] = compound: CN1C2=C(C3=C1C(=O)N(N=C3)CC4=CC(=CC=C4)N)SC(=C2)S(=O)C
Outline: as §1

[13] = compound: CN1CCC(CNc2ccc3ncc(-c4cccc(OC(F)(F)F)c4)n3n2)CC1
Outline: as §1

Measured: log2 fold change

UBE2O (UniProt Q9C0C9)
inactive: [1] 0.004 | [2] -0.013 | [3] 0.007 | [4] -0.021 | Nexturastat A 0.231 | vemurafenib -0.031 | [5] 0.018 | [6] 0.027 | givinostat 0.139 | barasertib 0.03 | [7] -0.01 | volasertib -0.045 | [8] 0.016 | epoxomicin -0.005 | [9] -0.109 | [10] -0.043 | [11] 0.018 | rosiglitazone 0.032 | [12] -0.041 | [13] -0.146

TYW3 (UniProt Q6IPR3)
inactive: [1] 0.013 | [2] 0.036 | [3] -0.008 | [4] 0.05 | Nexturastat A 0.244 | vemurafenib -0.077 | [5] -0.015 | [6] 0.054 | givinostat -0.024 | barasertib 0.038 | [7] 0.084 | volasertib 0.176 | [8] -0.068 | epoxomicin -0.031 | [9] 0.022 | [10] 0.008 | [11] -0.021 | rosiglitazone -0.039 | [12] 0.146 | [13] -0.022

UBE2N (UniProt P61088)
inactive: [1] 0.042 | [2] -0.052 | [3] 0.119 | [4] 0.035 | Nexturastat A -0.067 | vemurafenib 0 | [5] -0.022 | [6] -0.053 | givinostat -0.018 | barasertib 0.037 | [7] -0.011 | volasertib -0.008 | [8] -0.01 | epoxomicin 0.049 | [9] 0.008 | [10] 0.083 | [11] 0.013 | rosiglitazone 0.04 | [12] -0.021 | [13] -0.054

TUBA1B (UniProt P68363)
inactive: [1] 0.005 | [2] -0.005 | [3] 0.01 | [4] 0.022 | Nexturastat A -0.124 | vemurafenib -0.02 | [5] -0.011 | [6] -0.028 | givinostat -0.02 | barasertib -0.011 | [7] -0.029 | volasertib 0.059 | [8] -0.022 | epoxomicin -0.016 | [9] 0.008 | [10] -0.064 | [11] -0.006 | rosiglitazone 0.034 | [12] -0.052 | [13] -0.16

TTL (UniProt Q8NG68)
inactive: [1] -0.058 | [2] 0.043 | [3] 0.01 | [4] 0 | Nexturastat A -0.053 | vemurafenib 0.023 | [5] 0.025 | [6] -0.093 | givinostat -0.034 | barasertib 0.01 | [7] -0.035 | volasertib 0.054 | [8] -0.01 | epoxomicin -0.012 | [9] -0.005 | [10] -0.118 | [11] 0.013 | rosiglitazone -0.025 | [12] -0.041 | [13] -0.067

TSEN54 (UniProt Q7Z6J9)
inactive: [1] -0.047 | [2] -0.055 | [3] 0.008 | [4] 0.105 | Nexturastat A 0.14 | vemurafenib 0.023 | [5] 0.009 | [6] 0.047 | givinostat 0.057 | barasertib 0.047 | [7] 0.001 | volasertib -0.014 | [8] 0.11 | epoxomicin 0.005 | [9] -0.152 | [10] 0.12 | [11] 0.054 | rosiglitazone 0.039 | [12] -0.178 | [13] -0.149

TSR2 (UniProt Q969E8)
inactive: [1] -0.162 | [2] 0.016 | [3] -0.009 | [4] 0.111 | Nexturastat A -0.128 | vemurafenib 0.039 | [5] 0.073 | [6] 0.074 | givinostat -0.008 | barasertib -0.006 | [7] -0.098 | volasertib -0.213 | [8] 0.025 | epoxomicin -0.027 | [9] 0.012 | [10] 0.022 | [11] 0.059 | rosiglitazone 0.016 | [12] -0.039 | [13] -0.056

TSPAN14 (UniProt Q8NG11)
inactive: [1] 0.038 | [2] -0.003 | [3] 0.037 | [4] -0.011 | Nexturastat A -0.072 | vemurafenib -0.023 | [5] -0.003 | [6] -0.103 | givinostat -0.023 | barasertib -0.026 | [7] 0.17 | volasertib 0.047 | [8] -0.12 | epoxomicin 0.008 | [9] 0.022 | [10] 0.014 | [11] -0.006 | rosiglitazone 0.067 | [12] -0.063 | [13] 0.033

TSR1 (UniProt Q2NL82)
inactive: [1] 0.075 | [2] -0.049 | [3] -0.035 | [4] -0.001 | Nexturastat A 0.288 | vemurafenib 0.1 | [5] -0.028 | [6] 0.18 | givinostat 0.076 | barasertib 0.006 | [7] 0.145 | volasertib 0.132 | [8] 0.119 | epoxomicin -0.013 | [9] -0.083 | [10] -0.065 | [11] 0.076 | rosiglitazone 0.025 | [12] 0.132 | [13] 0.117

TSTA3 (UniProt Q13630)
inactive: [1] -0.026 | [2] 0.006 | [3] -0.037 | [4] 0 | Nexturastat A -0.072 | vemurafenib -0.037 | [5] -0.054 | [6] -0.074 | givinostat 0.016 | barasertib 0.025 | [7] 0.03 | volasertib 0.049 | [8] -0.032 | epoxomicin 0.022 | [9] 0.009 | [10] 0.001 | [11] -0.005 | rosiglitazone 0.004 | [12] -0.045 | [13] -0.055

TXLNG (UniProt Q9NUQ3)
inactive: [1] 0.117 | [2] 0.001 | [3] 0.003 | [4] 0.013 | Nexturastat A -0.041 | vemurafenib -0.008 | [5] 0.004 | [6] -0.036 | givinostat -0.009 | barasertib 0.03 | [7] 0.02 | volasertib 0.022 | [8] 0.039 | epoxomicin 0.017 | [9] 0.006 | [10] -0.078 | [11] -0.003 | rosiglitazone 0.027 | [12] -0.054 | [13] 0.077

TTC1 (UniProt Q99614)
inactive: [1] -0.047 | [2] 0.003 | [3] 0.004 | [4] 0.009 | Nexturastat A -0.052 | vemurafenib -0.018 | [5] -0.033 | [6] -0.047 | givinostat -0.081 | barasertib -0.018 | [7] -0.017 | volasertib 0.054 | [8] -0.039 | epoxomicin -0.033 | [9] 0.039 | [10] -0.006 | [11] -0.013 | rosiglitazone -0.02 | [12] -0.051 | [13] -0.014

UBE2R2 (UniProt Q712K3)
inactive: [1] -0.007 | [2] -0.026 | [3] 0.063 | [4] 0.041 | Nexturastat A -0.089 | vemurafenib 0.115 | [5] 0.016 | [6] -0.018 | givinostat -0.059 | barasertib 0.067 | [7] -0.037 | volasertib -0.135 | [8] 0.044 | epoxomicin -0.009 | [9] 0.051 | [10] 0.017 | [11] -0.021 | rosiglitazone 0.015 | [12] -0.147 | [13] -0.059

TYMS (UniProt P04818)
inactive: [1] -0.068 | [2] -0.015 | [3] 0.025 | [4] 0 | Nexturastat A 0.052 | vemurafenib 0.061 | [5] 0.029 | [6] 0.021 | givinostat 0.069 | barasertib 0.059 | [7] -0.066 | volasertib -0.053 | [8] 0.036 | epoxomicin 0.054 | [9] 0.012 | [10] 0.009 | [11] 0.056 | rosiglitazone 0.004 | [12] -0.014 | [13] -0.01

TSR3 (UniProt Q9UJK0)
inactive: [1] -0.034 | [2] -0.004 | [3] -0.02 | [4] -0.053 | Nexturastat A 0.132 | vemurafenib -0.036 | [5] -0.036 | [6] 0.017 | givinostat -0.02 | barasertib 0.029 | [7] 0.121 | volasertib 0.093 | [8] -0.042 | epoxomicin -0.054 | [9] 0.008 | [10] 0.048 | [11] -0.057 | rosiglitazone -0.023 | [12] 0.092 | [13] 0.103

UBE2M (UniProt P61081)
inactive: [1] -0.002 | [2] -0.039 | [3] 0.016 | [4] 0.054 | Nexturastat A -0.089 | vemurafenib 0.042 | [5] 0.03 | [6] -0.034 | givinostat 0.017 | barasertib 0.045 | [7] -0.073 | volasertib -0.126 | [8] 0.047 | epoxomicin 0.041 | [9] -0.026 | [10] -0.002 | [11] 0.012 | rosiglitazone 0.04 | [12] -0.044 | [13] -0.08

Random excerpt: two entries already listed
TSR3 (UniProt Q9UJK0)
inactive: [1] -0.034 | [2] -0.004 | [3] -0.02 | [4] -0.053 | Nexturastat A 0.132 | vemurafenib -0.036 | [5] -0.036 | [6] 0.017 | givinostat -0.02 | barasertib 0.029 | [7] 0.121 | volasertib 0.093 | [8] -0.042 | epoxomicin -0.054 | [9] 0.008 | [10] 0.048 | [11] -0.057 | rosiglitazone -0.023 | [12] 0.092 | [13] 0.103

UBE2M (UniProt P61081)
inactive: [1] -0.002 | [2] -0.039 | [3] 0.016 | [4] 0.054 | Nexturastat A -0.089 | vemurafenib 0.042 | [5] 0.03 | [6] -0.034 | givinostat 0.017 | barasertib 0.045 | [7] -0.073 | volasertib -0.126 | [8] 0.047 | epoxomicin 0.041 | [9] -0.026 | [10] -0.002 | [11] 0.012 | rosiglitazone 0.04 | [12] -0.044 | [13] -0.08

Reference: the supplement of paper PMC10849652
